These are yes or no findings as the source states them, for the method shown. Binding seen in cells or lysates may run through a third protein. Some binding calls cover weakened binding; strength is not graded here.
Experiments:
[1] = target: ELMO1 (Engulfment and Cell Motility 1) (mouse (endogenous in bone marrow neutrophils)) (UniProt Q8BPU7); assay: co-IP; lysates (RIPA) of mouse WT and CD11c KO mature neutrophils stimulated with PMA; precipitated with anti-ELMO1 antibody on Dynabeads Protein A; probed with anti-DOCK2 antibody
[2] = target: T1, CD11c (integrin αX) (mouse (endogenous in bone marrow neutrophils)) (UniProt Q9QXH4); assay: co-IP; lysates (RIPA) of mouse WT mature neutrophils with or without PMA stimulation; precipitated with anti-mouse CD11c antibodies (97585, N418) on Dynabeads Protein A, 1 h at room temperature; blot
T1 sequence: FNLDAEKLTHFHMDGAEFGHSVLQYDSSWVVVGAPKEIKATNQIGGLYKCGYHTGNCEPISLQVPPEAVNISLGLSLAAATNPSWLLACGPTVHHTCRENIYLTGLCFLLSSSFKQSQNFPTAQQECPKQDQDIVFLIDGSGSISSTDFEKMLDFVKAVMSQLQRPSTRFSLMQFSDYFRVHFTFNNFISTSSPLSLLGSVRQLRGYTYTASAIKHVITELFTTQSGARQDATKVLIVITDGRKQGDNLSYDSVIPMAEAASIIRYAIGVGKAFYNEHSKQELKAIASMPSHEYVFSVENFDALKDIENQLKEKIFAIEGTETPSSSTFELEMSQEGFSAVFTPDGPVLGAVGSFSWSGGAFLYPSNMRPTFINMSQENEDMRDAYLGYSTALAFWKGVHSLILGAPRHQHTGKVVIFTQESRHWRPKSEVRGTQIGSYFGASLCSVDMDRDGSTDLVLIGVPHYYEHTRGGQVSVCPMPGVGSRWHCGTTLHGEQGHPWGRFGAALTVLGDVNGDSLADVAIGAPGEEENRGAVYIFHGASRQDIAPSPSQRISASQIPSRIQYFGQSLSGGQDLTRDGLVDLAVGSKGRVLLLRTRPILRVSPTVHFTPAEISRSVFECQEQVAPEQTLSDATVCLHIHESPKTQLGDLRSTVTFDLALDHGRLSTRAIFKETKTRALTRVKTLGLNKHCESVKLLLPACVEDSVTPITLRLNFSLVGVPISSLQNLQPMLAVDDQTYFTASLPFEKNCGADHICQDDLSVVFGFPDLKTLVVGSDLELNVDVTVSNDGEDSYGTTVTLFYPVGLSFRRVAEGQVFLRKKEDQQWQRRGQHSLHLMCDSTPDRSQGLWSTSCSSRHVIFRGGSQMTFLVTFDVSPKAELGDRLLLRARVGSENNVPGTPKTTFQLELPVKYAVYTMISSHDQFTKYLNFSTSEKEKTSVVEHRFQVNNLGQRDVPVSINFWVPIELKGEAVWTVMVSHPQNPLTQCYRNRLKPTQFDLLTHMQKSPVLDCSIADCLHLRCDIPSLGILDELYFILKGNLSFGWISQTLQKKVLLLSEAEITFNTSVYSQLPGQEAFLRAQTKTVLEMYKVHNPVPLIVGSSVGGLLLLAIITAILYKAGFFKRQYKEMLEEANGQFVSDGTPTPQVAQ

The chains behind the UniProt entries cited, without tags or fusion partners.
UniProt Q8BPU7: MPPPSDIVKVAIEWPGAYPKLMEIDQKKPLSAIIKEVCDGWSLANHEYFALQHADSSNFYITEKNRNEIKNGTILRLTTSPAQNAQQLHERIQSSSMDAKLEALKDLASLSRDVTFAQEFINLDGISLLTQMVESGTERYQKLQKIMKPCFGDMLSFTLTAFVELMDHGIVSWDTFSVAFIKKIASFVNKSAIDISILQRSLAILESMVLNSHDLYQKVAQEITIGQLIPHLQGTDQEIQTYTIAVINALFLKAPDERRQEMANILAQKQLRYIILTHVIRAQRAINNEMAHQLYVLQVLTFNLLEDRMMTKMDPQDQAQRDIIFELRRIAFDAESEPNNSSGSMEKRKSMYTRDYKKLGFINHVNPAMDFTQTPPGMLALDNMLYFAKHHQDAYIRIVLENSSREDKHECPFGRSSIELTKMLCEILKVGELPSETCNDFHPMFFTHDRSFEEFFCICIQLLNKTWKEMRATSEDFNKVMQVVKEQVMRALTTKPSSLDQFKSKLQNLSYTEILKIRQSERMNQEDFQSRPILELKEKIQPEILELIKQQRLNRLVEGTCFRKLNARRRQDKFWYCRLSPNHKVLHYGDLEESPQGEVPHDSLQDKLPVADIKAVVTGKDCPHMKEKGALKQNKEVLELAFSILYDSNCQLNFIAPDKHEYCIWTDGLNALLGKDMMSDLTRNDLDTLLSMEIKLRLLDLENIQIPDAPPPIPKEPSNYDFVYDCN
UniProt Q8C3J5: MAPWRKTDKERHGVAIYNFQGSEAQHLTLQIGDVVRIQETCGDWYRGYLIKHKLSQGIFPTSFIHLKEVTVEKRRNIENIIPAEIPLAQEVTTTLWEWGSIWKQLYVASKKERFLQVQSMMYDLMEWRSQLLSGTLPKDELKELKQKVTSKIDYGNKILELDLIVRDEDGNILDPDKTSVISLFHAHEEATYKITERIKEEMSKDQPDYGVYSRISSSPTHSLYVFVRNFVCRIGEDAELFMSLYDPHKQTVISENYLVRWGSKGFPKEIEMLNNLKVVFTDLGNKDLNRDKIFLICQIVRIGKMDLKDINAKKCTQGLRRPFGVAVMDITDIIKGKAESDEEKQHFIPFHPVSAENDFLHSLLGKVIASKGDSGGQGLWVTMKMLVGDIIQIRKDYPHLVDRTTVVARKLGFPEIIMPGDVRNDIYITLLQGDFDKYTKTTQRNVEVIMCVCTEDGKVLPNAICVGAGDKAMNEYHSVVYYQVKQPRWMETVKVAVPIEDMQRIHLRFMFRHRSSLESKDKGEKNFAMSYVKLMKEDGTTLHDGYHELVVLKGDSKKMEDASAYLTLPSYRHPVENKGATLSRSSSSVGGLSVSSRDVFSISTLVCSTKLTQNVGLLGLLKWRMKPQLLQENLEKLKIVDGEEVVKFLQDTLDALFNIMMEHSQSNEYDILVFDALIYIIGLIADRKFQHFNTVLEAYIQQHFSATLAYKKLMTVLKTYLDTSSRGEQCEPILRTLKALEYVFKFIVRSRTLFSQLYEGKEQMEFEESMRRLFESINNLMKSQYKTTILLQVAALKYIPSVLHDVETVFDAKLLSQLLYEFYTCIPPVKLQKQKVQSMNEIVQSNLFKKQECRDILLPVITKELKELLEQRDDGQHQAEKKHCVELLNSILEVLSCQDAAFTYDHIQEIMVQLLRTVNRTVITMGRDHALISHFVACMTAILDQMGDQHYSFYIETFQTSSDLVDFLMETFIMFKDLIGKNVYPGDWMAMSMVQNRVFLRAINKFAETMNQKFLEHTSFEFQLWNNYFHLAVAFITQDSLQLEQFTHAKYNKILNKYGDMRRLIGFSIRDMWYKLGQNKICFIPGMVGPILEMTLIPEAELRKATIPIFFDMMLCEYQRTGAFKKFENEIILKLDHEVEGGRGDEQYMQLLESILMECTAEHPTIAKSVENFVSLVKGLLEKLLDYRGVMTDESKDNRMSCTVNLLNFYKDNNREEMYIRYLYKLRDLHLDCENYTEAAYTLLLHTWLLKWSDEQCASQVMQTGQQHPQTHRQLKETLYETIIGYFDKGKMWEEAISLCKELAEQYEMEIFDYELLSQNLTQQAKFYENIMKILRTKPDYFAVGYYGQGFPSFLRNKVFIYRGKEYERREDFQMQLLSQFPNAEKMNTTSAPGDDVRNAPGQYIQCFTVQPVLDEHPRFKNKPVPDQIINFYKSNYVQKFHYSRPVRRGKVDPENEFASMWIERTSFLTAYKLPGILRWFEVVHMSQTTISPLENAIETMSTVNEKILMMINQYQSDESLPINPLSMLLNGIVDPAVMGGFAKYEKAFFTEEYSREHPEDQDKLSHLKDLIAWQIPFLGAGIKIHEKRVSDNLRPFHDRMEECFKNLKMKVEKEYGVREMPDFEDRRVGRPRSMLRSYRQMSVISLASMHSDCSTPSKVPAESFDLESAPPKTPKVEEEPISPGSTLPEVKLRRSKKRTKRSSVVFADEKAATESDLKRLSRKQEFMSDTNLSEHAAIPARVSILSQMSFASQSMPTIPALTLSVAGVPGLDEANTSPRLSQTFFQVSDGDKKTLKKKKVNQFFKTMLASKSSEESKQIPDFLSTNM

| binding [1] | binding [2] | Substance |
| --- | --- | --- |
| binds | binds | Dedicator of Cytokinesis 2 (DOCK2) (from UniProt Q8C3J5 1-1828) |
| – | binds | ELMO1 (Engulfment and Cell Motility 1) (from UniProt Q8BPU7 1-727) |
